Laboratory results from patent publication US4755591 (dated 1988).

Columns and labels:
[1] = Fmoc solid-phase peptide synthesis; Wang resin; dicyclohexylcarbodiimide/HOObt with N-ethylmorpholine (segment couplings in solu); conditions: whole synthesis, scale 100 mg peptide-resin sample cleaved, perchlorate
peptide synthesis = conditions: perchlorate

Substance: Asn-Ser-Phe-Arg-Tyr
- crude mass [1]: 23.8 mg

Substance: Boc-His-Ser(Bu^t)-Asp(OBu^t)-Gly-Thr(Bu^t)-Phe-secretin(7-27) protected perchlorate
- step yield (peptide synthesis; coupling step, corrected for peptide content about 80%): 83% yield

Substance: H-Arg(HClO4)-Leu-Gln-Arg(HClO4)-Leu-Leu-Gln-Gly-Leu-Val-NH2.HClO4
- step yield (peptide synthesis; late stage modification step, overall): 72%

Substance: H-Arg(HClO4)-Leu-Leu-Gln-Gly-Leu-Val-NH2 HClO4
- step yield (peptide synthesis; late stage modification step): 92%

Substance: H-Thr(Bu^t)-Ser(Bu^t)-Glu(OBu^t)-Leu-Ser(Bu^t)-Arg(HClO4)-Leu -Arg(HClO4)-Asp(OBu^t)-Ser(Bu^t)-Ala-Arg(HClO4)-Leu-Gln -Arg(HClO4)-Leu-Leu-Gln-Gly-Leu-Val-NH2. HClO4
- step yield (peptide synthesis; late stage modification step): 97%

Substance: Z-Arg(Z2)-Asp(OBu^t)-Ser(Bu^t)-Ala-Arg(HClO4)-Leu-Gln-Arg(HClO4)-Leu-Leu-Gln-Gly-Leu-Val-NH2
- step yield (peptide synthesis; coupling step): 99%

Substance: Z-Arg(Z2)-Leu-Gln-Arg(HClO4)-Leu-Leu-Gln-Gly-Leu-Val-NH2
- step yield (peptide synthesis; coupling step): 92%
